System: SD rats with a high cholesterol diet (hyperlipidemia model)
Assay: Measurement of blood lipid in high cholesterol diet SD rats
Type: in vivo, SD rats (Sprague-Dawley rats)
[1] = plasma, oral, Ex. compositions 1,000 mg/kg, atorvastatin 5 mg/kg

Compound: CC(C)c1c(C(=O)Nc2ccccc2)c(-c2ccccc2)c(-c2ccc(F)cc2)n1CC[C@@H](O)C[C@@H](O)CC(=O)O [Atorvastatin]
- Atherogenic Index (AI) ([(TC)-(HDL-c)]/(HDL-c), Ex. compositions 1000 mg/kg/day, atorvastatin 5 mg/kg/day): 1.6
- HDL-cholesterol concentration in blood [1]: 53 mg/dL
- LDL-cholesterol concentration in blood [1]: 48 mg/dL
- Total cholesterol concentration in blood [1]: 147 mg/dL
- Triglyceride concentration in blood [1]: 219 mg/dL

From patent publication US10543246B2, “Composition for preventing or treating hyperlipidemia” (HAWON PHARM. CORPORATION, priority 2014, dated 2020)
